In assay [1] the target is CSQ1∆C7 (rabbit CSQ1 lacking the final seven C-terminal residues 361-367) (rabbit) (UniProt P07221). Description: co-IP; as a1 but at 100 μM Ca2+; CSQ1 construct coupled to anti-CSQ1/protein A/G, exposed to purified trisk95; Western blot; both purified. A general note: Immunoblotting shows a protein as a band on a membrane.
Assay [2] deals with CSQ1_(∆C14) (rabbit CSQ1 lacking the whole C-terminal tail, residues 354-367) (rabbit) (UniProt P07221). Described as above.
The target of assay [3] is CSQ1∆C7 (rabbit CSQ1 lacking the final seven C-terminal residues 361-367) (rabbit) (UniProt P07221). Description: co-IP; purified CSQ1 construct coupled to anti-CSQ1/protein A/G agarose (Pierce kit), then exposed to purified trisk95 or junctin; 20 mM MOPS, 150 mM NaCl, 1 mM CaCl2, pH 7.4; CSQ1 to partner 2:1 by weight; Western blot; both purified.
Assay [4] concerns the target CSQ1_(∆C14) (rabbit CSQ1 lacking the whole C-terminal tail, residues 354-367) (rabbit) (UniProt P07221). The assay is described as above.

Protein sequences, listed by entry. Tags and fused reporters are not part of them. Lines headed by an entry give the natural chain unless they say otherwise; changes in a name come on top. Residues count along the entry.
UniProt P07221: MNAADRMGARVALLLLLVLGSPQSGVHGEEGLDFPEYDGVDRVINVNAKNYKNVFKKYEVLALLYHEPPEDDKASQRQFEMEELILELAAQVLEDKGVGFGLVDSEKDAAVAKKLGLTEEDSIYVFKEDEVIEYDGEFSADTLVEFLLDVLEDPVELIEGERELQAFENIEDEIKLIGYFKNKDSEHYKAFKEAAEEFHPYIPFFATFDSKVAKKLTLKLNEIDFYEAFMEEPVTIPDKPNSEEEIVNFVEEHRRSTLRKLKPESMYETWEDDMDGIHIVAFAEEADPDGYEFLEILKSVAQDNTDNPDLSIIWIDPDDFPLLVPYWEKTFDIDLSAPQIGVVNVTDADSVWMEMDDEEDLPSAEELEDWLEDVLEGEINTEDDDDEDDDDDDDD
CSQ1∆C7 (rabbit CSQ1 lacking the final seven C-terminal residues 361-367): residues 29-388 of P07221
CSQ1_(∆C14) (rabbit CSQ1 lacking the whole C-terminal tail, residues 354-367): residues 29-381 of P07221

These are yes or no findings as the source states them, for the method shown. Some binding calls cover weakened binding; strength is not graded here.

The source of these data is PMC4389316, “C-terminal residues of skeletal muscle calsequestrin are essential for calcium binding and for skeletal ryanodine receptor inhibition” (Skeletal Muscle, 2015).

B1: skeletal triadin 95 kDa (trisk95) (protein, UniProt Q28820 1-706)
chain: MTEITAEGNASTTTTVIDSKNGSVPKSPGKVLKRTVTEDLVTTFSSPAAWLLVIALIITWSAVAVVMFDLVDYKNFSASSIAKMGSDPLKLVHDAVEETTDWIYGFFSLLSDIISSDGDEEDDEGDEDTAKGEIEEPPLKRKDIHKEKIEKQEKPERKIPTKVVHKEKEKEKEKVKEKEKPEKKATHKEKLEKKEKPETKTVTKEEKKARTKEKIEEKTKKEVKGVKQEKVKQTVAKAKEVQKTPKPKEKESKETAAVSKQEQKDQYAFCRYMIDIFVHGDLKPGQSPAIPPPSPTEQASRPTPALPTPEEKEGEKKKAEKKVTTETKKKAEKEDAKKKSEKETDIDMKKKEPGKSPDTKPGTVKVTTQAATKKDEKKEDSKKAKKPAEEQPKGKKQEKKEKHEEPAKSTKKEHAAPSEKQAKAKIERKEEVSAASTKKAVPAKKEEKTTKTVEQETRKEKPGKISSVLKDKELTKEKEVKVPASLKEKGSETKKDEKTSKPEPQIKKEEKPGKEVKPKPPQPQIKKEEKPEQDIMKPEKTALHGKPEEKVLKQVKAVTTEKHVKPKPAKKAEHQEKEPPSIKTDKPKSTSKGMPEVTESGKKKIEKSEKEIKVPARRESHQLQNVTKAEKPARGSKEGFEDVPASKKAKEEAEEVSSTKKQKSPISFFQCVYLDGYNGYGFQFPVTPAQYPGESSGKPNSPGPKQ
For the molecule B1, the binding entry in assay [1] is “binds weakly”; in assay [2], “no binding”; in assay [3] it was “binds weakly”; in assay [4], “no binding”.
